Experimental findings from article PMC5716713 are described below.

The chains behind the UniProt entries cited, without tags or fusion partners.
UniProt P31749: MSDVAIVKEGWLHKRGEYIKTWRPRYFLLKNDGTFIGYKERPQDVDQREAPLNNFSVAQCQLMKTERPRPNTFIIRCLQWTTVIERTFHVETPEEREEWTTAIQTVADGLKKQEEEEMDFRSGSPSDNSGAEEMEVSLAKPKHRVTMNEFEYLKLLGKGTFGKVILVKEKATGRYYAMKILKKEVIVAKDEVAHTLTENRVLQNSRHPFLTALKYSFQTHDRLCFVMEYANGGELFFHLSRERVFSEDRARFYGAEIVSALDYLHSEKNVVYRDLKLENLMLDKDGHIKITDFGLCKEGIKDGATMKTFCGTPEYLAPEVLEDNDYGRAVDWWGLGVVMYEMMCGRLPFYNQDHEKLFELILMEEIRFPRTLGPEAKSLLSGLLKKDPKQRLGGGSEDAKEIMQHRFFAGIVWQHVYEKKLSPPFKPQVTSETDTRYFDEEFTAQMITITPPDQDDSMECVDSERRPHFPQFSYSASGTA

Results are given in words; binding and its absence hold for the method and conditions named. Binding seen in cells or lysates may run through a third protein. Some results given as binding are weak or reduced against the parent protein; the word gives no strength.

The experiment concerns the target endogenous Akt1 of SW620 cells (human (endogenous in SW620)) (UniProt P31749). The experiment can be described thus: pull-down; competition: synthetic FAK-derived peptide (160 μM by the legend, 160mM by the methods) added to GST-FAK-NT1 or GST-FAK beads and cell lysate, two hours at 4°C before overnight Akt1 incubation; loss of Akt1 pull-down read by blot; only the binder purified.

B1: LAHPPEE peptide (wild-type FAK short helix) (peptide)
peptide: LAHPPEE
On to B1, for which the binding result is given as “binds”.

B2: LAHPSEE peptide (mutant FAK short helix) (peptide)
peptide: LAHPSEE
Turning to B2, the binding result is “binds”.

B3: Pep-FAK-NT1-2-2 (peptide, UniProt Q05397 94-126)
peptide: EVHWLHVDMGVSSVREKYELAHPPEEWKYELRI
As for B3, the binding result was “binds”.

B4: AAHCGEE peptide (mutant FAK short helix) (peptide)
peptide: AAHCGEE
B4: the binding entry is reported as “binds”.
